Where cells or extracts were used, other partners may take part. For some assays here: A negative result means that nothing was seen under these conditions. Where a protein sequence is shown, tags need not be part of it. For some assays here: The comparison behind a weaker result is the experiment's own reference, which may not be listed here.
Assays:
Experiment in all cases: EMSA
[1] = target: T1, SIP1 full size (SIP1FS) (mouse) (UniProt Q9R0G7); details: protein in a lysate after overexpression, protein details: N-terminal (Myc)6, pCS3, COS1 extract, label: 32P
T1 sequence (looked up): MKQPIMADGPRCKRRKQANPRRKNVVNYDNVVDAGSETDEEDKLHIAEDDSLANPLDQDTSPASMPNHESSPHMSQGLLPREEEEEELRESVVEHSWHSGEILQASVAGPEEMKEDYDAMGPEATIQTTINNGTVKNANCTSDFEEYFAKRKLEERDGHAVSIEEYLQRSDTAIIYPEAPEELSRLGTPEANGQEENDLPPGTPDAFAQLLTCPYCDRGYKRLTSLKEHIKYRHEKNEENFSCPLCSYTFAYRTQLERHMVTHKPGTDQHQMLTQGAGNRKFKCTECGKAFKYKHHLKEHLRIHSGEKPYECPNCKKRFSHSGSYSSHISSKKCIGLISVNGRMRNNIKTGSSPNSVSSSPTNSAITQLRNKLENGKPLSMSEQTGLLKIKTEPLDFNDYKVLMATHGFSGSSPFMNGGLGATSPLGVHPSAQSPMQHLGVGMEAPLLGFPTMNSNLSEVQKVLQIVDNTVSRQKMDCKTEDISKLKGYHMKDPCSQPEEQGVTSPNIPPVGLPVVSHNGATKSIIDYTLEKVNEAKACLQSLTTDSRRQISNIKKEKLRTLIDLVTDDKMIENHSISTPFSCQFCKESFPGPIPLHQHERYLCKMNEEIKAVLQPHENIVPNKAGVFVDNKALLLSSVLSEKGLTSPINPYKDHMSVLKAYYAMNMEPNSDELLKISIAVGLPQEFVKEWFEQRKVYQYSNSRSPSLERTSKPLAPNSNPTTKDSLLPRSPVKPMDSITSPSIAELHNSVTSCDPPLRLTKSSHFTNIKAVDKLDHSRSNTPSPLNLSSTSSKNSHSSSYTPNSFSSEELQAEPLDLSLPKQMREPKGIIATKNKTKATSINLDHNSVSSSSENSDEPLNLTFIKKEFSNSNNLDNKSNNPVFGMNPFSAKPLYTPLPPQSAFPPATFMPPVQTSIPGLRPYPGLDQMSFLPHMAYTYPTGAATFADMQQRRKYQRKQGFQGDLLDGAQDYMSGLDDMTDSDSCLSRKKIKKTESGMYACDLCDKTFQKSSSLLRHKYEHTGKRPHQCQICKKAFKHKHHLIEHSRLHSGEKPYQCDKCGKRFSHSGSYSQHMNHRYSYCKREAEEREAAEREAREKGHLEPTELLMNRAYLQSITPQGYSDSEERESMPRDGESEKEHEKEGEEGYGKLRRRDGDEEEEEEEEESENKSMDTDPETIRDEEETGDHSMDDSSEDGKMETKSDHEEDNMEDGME

deltaEF1 full length = target: T2, deltaEF1 full length (UniProt Q64318); details: protein in a lysate after overexpression, protein details: N-terminal (Myc)6, pCS3, COS1 extract, label: 32P
T2 sequence (looked up): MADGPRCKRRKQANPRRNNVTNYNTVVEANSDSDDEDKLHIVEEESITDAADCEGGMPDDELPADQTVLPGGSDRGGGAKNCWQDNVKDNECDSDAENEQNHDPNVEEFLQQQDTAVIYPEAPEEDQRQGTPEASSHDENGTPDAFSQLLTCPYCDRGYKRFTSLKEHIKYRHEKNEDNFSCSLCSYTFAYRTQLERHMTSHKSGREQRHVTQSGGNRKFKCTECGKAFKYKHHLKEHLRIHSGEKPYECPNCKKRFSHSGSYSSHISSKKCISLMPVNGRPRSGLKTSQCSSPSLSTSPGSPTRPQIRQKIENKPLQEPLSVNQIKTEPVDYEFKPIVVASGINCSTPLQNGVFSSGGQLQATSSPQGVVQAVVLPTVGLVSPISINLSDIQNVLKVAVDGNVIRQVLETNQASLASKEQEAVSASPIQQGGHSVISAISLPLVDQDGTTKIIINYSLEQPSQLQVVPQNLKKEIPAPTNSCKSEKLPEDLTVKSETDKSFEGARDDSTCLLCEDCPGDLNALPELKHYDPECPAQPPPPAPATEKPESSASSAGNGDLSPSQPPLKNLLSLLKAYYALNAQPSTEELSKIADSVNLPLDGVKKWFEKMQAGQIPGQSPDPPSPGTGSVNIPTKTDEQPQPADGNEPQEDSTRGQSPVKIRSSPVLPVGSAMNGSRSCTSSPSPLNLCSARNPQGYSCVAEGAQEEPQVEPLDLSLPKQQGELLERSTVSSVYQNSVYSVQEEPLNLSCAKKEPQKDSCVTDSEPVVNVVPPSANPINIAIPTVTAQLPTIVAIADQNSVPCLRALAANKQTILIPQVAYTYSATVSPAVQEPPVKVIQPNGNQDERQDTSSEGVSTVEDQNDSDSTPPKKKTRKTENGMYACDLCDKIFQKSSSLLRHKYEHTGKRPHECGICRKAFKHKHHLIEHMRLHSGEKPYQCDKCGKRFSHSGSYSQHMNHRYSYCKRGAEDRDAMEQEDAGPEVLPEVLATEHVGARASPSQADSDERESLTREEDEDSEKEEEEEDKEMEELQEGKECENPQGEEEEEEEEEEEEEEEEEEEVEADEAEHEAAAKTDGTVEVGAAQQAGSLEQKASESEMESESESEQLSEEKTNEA

SIP1CZF (mouse) = target: T3, SIP1CZF (mouse) (UniProt Q9R0G7); details: protein in a lysate after overexpression, protein details: (Myc)6, pCS3, COS1 extract, label: 32P
T3 sequence (looked up): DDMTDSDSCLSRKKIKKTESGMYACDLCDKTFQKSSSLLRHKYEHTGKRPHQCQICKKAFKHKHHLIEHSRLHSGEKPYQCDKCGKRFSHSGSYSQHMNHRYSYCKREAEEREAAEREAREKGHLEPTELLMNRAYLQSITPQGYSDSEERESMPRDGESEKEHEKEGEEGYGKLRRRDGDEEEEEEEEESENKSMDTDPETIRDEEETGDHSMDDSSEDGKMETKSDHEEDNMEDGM

[2] = not among mutants affecting binding, variant of Xbra-WT
[3] = no effect versus WT, variant of Xbra-WT
[4] = upstream CACCT mutated, variant of Xbra-WT
[5] = equal to WT (p117 reports a 3 bp spacing deletion, Mut3, as weakened), variant of Xbra-WT
[6] = equal to WT, variant of Xbra-WT
[7] = abolished or strongly affected, 50 ng does not compete, variant of alpha4I-WT
[8] = abolished or strongly affected, variant of alpha4I-WT
[9] = strongest binding, variant of Xbra-E

AGAACTGACACCTGGTCACTTTATAAAGTGACCAGGTGTCAGTTCT (double strand) [Xbra-ErE]
binding result ([1]; variant of Xbra-E): binds | binding result (deltaEF1 full length; variant of Xbra-E): binds

ATCACTGCCACCTAAAATATAGAATGATAAAGTGACCAGGTGTCAGTTCT (double strand) [Xbra-K]
binding result [1, 2]: binds

ATCCAGGCAGGTGTAAATATAGAATGATAAAGTGACCAGGTGTCAGTTCT (double strand) [Xbra-W]
binding result [1, 3]: binds | binding result (deltaEF1 full length; variant of Xbra-WT): binds

ATCCAGGCAGGTGTAAATATAGAATGATAAAGTGACCCACCTACAGTTCT (double strand) [Xbra-V]
binding result [1, 3]: binds | binding result (deltaEF1 full length; variant of Xbra-WT): binds

ATCCAGGCCACCGCCAATATAGAATGATAAAGTGACCAGGTGTCAGTTCT (double strand) [Xbra-N]
binding result [1, 4]: no binding

ATCCAGGCCACCTAAAATATAGAAGTCTAAAGTGACCAGGTGTCAGTTCT (double strand) [Xbra-R]
binding result [1, 2]: binds

ATCCAGGCCACCTAAAATATAGAATATTCTATATTTTAGGTGGCCTGGAT (double strand) [Xbra-FrF]
binding result ([1]; variant of Xbra-F): no binding | binding result (deltaEF1 full length; variant of Xbra-F): no binding

ATCCAGGCCACCTAAAATATAGAATGAGGCTCAGACAGGTGTAGAATTCGGCG (double strand) [Xbra-F+AREB6]
binding result (SIP1CZF (mouse); equal to Rdm+AREB6): binds | binding result [1]: binds

ATCCAGGCCACCTAAAATATAGAATGATAAAGTGACTAGGTGTCAGTTCT (double strand) [Xbra-Z]
binding result ([1]; CACCTG to CACCTA, strongly decreased, variant of Xbra-WT): binds more weakly | binding result (deltaEF1 full length; strongly decreased, variant of Xbra-WT): binds more weakly

ATCCAGGCCACCTAAAATATAGAATGATGTGACCAGGTGTCAGTTCT (double strand) [Xbra-C]
binding result [1, 5]: binds | binding result (deltaEF1 full length; [6]): binds

ATCCAGGCCACCTAAAATATAGTGACCAGGTGTCAGTTCT (double strand) [Xbra-U]
binding result [1, 6]: binds | binding result (deltaEF1 full length; [6]): binds

ATCCAGGCCACCTAAAATATATCCTGATAAAGTGACCAGGTGTCAGTTCT (double strand) [Xbra-Q]
binding result [1, 2]: binds

ATCCAGGCCACCTAAAATCGCGAATGATAAAGTGACCAGGTGTCAGTTCT (double strand) [Xbra-P]
binding result [1, 2]: binds

ATCCAGGCCACCTAACCGATAGAATGATAAAGTGACCAGGTGTCAGTTCT (double strand) [Xbra-O]
binding result [1, 2]: binds

ATCCAGGCCACCTATATAGAATGATAAAGTGACCAGGTGTCAGTTCT (double strand) [Xbra-B]
binding result [1, 5]: binds | binding result (deltaEF1 full length; [6]): binds

ATCCAGGCCATCTAAAATATAGAATGATAAAGTGACCAGGTGTCAGTTCT (double strand) [Xbra-S]
binding result ([1]; variant of Xbra-WT): no binding | binding result (deltaEF1 full length; variant of Xbra-WT): no binding

ATCCAGGCCCAATAAAATATAGAATGATAAAGTGACCAGGTGTCAGTTCT (double strand) [Xbra-M]
binding result [1, 4]: no binding

ATCCAGTAAACCTAAAATATAGAATGATAAAGTGACCAGGTGTCAGTTCT (double strand) [Xbra-L]
binding result [1, 4]: no binding

CAATTTAGAGTACTGTGTACTTGGGAGGGCTCAGACAGGTGTAGAATTCGGCG (double strand) [Rdm+AREB6]
binding result (SIP1CZF (mouse); equal to Xbra-F+AREB6, variant of Xbra-F+AREB6): binds | binding result ([1]; variant of Xbra-F+AREB6): no binding

CAATTTAGAGTACTGTGTACTTGGGAGTAAAGTGACCAGGTGTCAGTTCT (double strand) [Rdm+Xbra-E]
binding result (SIP1CZF (mouse); variant of Xbra-WT): binds | binding result ([1]; variant of Xbra-WT): no binding

GCACAGGCCACCTAAAATATAGAATGATAAAGTGACCAGGTGTCAGTTCT (double strand) [Xbra-J]
binding result [1, 2]: binds

GCAGGGCACACCTGGATTGCATTAGAATGAGACTCACTACCCAGTTCAGATGTGTTGCGT (double strand) [alpha4I-A]
binding result [1, 7]: binds more weakly | binding result (deltaEF1 full length; [8]): binds more weakly

GCAGGGCACATCTGGATTGCATTAGAATGAGACTCACTACCCAGTTCAGGTGTGTTGCGT (double strand) [alpha4I-B]
binding result [1, 7]: binds more weakly | binding result (deltaEF1 full length; [8]): binds more weakly

TAAAGTGACCAGGTGTCAGTTCTTAAAGTGACCAGGTGTCAGTTCT (double strand) [Xbra-EE]
binding result [1, 9]: binds | binding result (deltaEF1 full length; [9]): binds

TGGCCGGCAGGTGAACCCTCAGCCAATCAGCGGTACGGGGGGCGGTGCTCCGGGGCTCACCTGGCTGCAG (double strand) [Ecad-WT]
binding result [1]: binds | binding result (deltaEF1 full length): binds
